Results are given in words; binding and its absence hold for the method and conditions named. Binding seen in cells or lysates may run through a third protein. Sequences can lack the tags named with a protein.
T1: His6-HaloTag-syt-17 (UniProt Q62807)
T1 sequence: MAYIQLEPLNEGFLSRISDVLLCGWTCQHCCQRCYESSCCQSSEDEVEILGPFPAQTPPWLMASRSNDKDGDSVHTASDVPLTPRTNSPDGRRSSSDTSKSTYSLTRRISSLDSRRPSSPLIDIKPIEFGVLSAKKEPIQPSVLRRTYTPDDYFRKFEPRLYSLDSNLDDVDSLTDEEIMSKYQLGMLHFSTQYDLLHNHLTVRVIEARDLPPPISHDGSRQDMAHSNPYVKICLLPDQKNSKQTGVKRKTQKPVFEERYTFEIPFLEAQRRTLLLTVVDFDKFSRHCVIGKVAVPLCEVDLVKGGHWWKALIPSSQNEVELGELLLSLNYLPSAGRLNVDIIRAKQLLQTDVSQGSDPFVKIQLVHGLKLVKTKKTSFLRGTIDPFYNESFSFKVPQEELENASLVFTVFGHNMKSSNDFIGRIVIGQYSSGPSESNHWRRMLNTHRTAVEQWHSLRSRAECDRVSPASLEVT


Biological target: T1, His6-HaloTag-syt-17
Experiment: condition: 45 μg bait protein in 6 ml of clarified lysate; pull-down; Halo-tagged bait on HaloLink resin (45 μg bait protein) in 6 ml clarified mouse brain lysate (Triton X-100), 3 h at 4 °C; eluates assayed by Western blot for syntaxin-5 or syntaxin-13; only the target purified

| binding | Binder |
| --- | --- |
| no binding | syntaxin-13 (protein, UniProt Q9ER00 1-274) MSYGPLDMYRNPGPSGPQPRDFNSIIQTCSGNIQRISQATAQIKNLMSQLGTKQDSSKLQENLQQLQHSTNQLAKETNELLKELGSLPLPLSASEQRQQKLQKERLMNDFSSALNNFQVVQRKVSEKEKESIARARAGSRLSAEDRQREEQLVSFDSHEEWNQMQSQEEEAAITEQDLELIKERETAIRQLEADILDVNQIFKDLAMMIHDQGDLIDSIEANVESSEVHVERATDQLQRAAYYQKKSRKKMCILVLVLSVIVTVLVVVIWVASK |
| no binding | syntaxin-5 (protein, UniProt Q8K1E0 1-355) MIPRKRYGSKNTDQGVYLGLSKTQVLSPATAISSSSDSTPLPTPVALVPSPPDTMSCRDRTQEFQSACKSLQSRQNGIQTSKPALHAARQCSEFTLMARRIGKDLSNTFAKLEKLTILAKRKSLFDDKAVEIEELTYIIKQDINSLNKQIAQLQDFVRAKGSQSGRHLQTHSNTIVVSLQSKLASMSNDFKSVLEVRTENLKQQRNRREQFSRAPVSALPLAPNNLGGGPIILGAESRASRDVAIDMMDPRTSQQLQLIDEQDSYIQSRADTMQNIESTIVELGSIFQQLAHMVKEQEETIQRIDENVLGAQLDVEAAHSEILKYFQSVTSNRWLMVKIFLILIVFFIIFVVFLA |

— publication PMC6684635
